{"source": "patent US9630943B2", "about": "“Tetrahydronaphthyl(thio) carboxamides” (BAYER CROPSCIENCE AG, priority 2012, dated 2017)", "key": {"Sphaerotheca fuliginea": {"tested_on": "Sphaerotheca fuliginea", "assay": "In vivo preventive test on Sphaerotheca fuliginea (powdery mildew on cucurbits)", "conditions": "gherkin plants, preventive spray, dose 500 ppm, grading 12 days after contamination", "experimental": "Gherkin plants (“Vert petit de Paris” variety), sown in starter cups on a 50/50 peat soil-pozzolana substrate and grown at 24° C., are treated at the Z11 cotyledon stage by spraying with the active ingredient prepared as described above. Plants, used as controls, are treated with the mixture of acetone/tween/DMSO/water not containing the active material. After 24 hours, the plants are contaminated by spraying the cotyledons with an aqueous suspension of Sphaerotheca fuliginea spores (100 000 spores per ml). The spores are collected from infected plants. […] Grading (% of efficacy) is carried out 12 days after the contamination, in comparison with the control plants."}, "Uromyces appendiculatus": {"tested_on": "Uromyces appendiculatus", "assay": "In vivo preventive test on Uromyces appendiculatus (bean rust)", "conditions": "bean plants, preventive spray, dose 500 ppm, grading 11 days after contamination", "experimental": "Plants, used as controls, are treated with the mixture of acetone/tween/DMSO/water not containing the active material. After 24 hours, the plants are contaminated by spraying the leaves with an aqueous suspension of Uromyces appendiculatus spores (150 000 spores per ml). […] Grading (% of efficacy) is carried out 11 days after the contamination, in comparison with the control plants."}, "Puccinia recondita": {"tested_on": "Puccinia recondita", "assay": "In vivo preventive test on Puccinia recondita (brown rust on wheat)", "conditions": "wheat plants, preventive spray, dose 500 ppm, grading 12 days after contamination"}, "Septoria tritici": {"tested_on": "Septoria tritici", "assay": "In vivo preventive test on Septoria tritici (leaf spot on wheat)", "conditions": "wheat plants, preventive spray, dose 500 ppm, grading 24 days after contamination", "experimental": "Wheat plants (“Scipion” variety), sown in starter cups on a 50/50 peat soil-pozzolana substrate and grown at 22° C., are treated at the 1-leaf stage (10 cm height) by spraying with the active ingredient prepared as described above. Plants, used as controls, are treated with the mixture of acetone/tween/DMSO/water not containing the active material. After 24 hours, the plants are contaminated by spraying the leaves with an aqueous suspension of cryopreserved Septoria tritici spores (500 000 spores per ml). […] Grading (% of efficacy) is carried out 24 days after the contamination, in comparison with the control plants."}}, "note": "Some of these results come from one statement about several compounds together.", "data": [{"smiles": "Cc1nc(C(F)F)c(C(=O)Nc2cccc3c2CCCC3(C)C)s1", "note": "[Example 3]", "values": [{"measurement": "biological efficacy", "setting": "Sphaerotheca fuliginea", "value": "≥ 90", "unit": "%"}, {"measurement": "biological efficacy", "setting": "Uromyces appendiculatus", "value": "≥ 90", "unit": "%"}, {"measurement": "biological efficacy", "setting": "Puccinia recondita", "value": "≥ 90", "unit": "%"}, {"measurement": "biological efficacy", "setting": "Septoria tritici", "value": "≥ 70", "unit": "%"}]}]}
